This is one part of the list. Small differences around the control level are noise.

Sequences of proteins named here, by UniProt entry; tags and fusion partners are left off. A change or cut given only in a name is not applied to a line headed by its entry.
UniProt P53597: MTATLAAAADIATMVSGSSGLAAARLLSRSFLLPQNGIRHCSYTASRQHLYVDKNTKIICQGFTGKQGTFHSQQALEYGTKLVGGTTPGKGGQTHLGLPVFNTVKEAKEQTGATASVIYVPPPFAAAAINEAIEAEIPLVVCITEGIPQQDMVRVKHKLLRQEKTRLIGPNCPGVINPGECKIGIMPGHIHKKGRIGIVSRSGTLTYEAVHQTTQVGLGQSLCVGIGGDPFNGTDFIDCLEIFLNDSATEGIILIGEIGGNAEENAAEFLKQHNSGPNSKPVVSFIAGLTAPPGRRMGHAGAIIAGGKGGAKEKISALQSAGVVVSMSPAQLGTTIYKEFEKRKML
UniProt P52657, whole entry: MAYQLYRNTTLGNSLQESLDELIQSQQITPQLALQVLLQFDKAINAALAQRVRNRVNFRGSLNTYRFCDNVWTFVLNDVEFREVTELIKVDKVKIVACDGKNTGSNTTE
UniProt P52655, whole entry: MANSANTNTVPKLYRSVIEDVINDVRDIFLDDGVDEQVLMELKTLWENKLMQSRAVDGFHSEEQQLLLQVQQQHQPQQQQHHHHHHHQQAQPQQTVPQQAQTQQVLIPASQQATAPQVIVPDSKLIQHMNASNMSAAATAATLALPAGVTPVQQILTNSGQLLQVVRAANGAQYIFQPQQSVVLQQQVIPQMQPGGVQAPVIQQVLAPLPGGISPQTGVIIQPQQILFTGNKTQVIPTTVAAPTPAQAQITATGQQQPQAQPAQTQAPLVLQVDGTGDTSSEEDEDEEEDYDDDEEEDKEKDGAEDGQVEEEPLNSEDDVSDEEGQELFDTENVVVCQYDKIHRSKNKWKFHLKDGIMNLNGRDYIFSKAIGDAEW
UniProt P49750: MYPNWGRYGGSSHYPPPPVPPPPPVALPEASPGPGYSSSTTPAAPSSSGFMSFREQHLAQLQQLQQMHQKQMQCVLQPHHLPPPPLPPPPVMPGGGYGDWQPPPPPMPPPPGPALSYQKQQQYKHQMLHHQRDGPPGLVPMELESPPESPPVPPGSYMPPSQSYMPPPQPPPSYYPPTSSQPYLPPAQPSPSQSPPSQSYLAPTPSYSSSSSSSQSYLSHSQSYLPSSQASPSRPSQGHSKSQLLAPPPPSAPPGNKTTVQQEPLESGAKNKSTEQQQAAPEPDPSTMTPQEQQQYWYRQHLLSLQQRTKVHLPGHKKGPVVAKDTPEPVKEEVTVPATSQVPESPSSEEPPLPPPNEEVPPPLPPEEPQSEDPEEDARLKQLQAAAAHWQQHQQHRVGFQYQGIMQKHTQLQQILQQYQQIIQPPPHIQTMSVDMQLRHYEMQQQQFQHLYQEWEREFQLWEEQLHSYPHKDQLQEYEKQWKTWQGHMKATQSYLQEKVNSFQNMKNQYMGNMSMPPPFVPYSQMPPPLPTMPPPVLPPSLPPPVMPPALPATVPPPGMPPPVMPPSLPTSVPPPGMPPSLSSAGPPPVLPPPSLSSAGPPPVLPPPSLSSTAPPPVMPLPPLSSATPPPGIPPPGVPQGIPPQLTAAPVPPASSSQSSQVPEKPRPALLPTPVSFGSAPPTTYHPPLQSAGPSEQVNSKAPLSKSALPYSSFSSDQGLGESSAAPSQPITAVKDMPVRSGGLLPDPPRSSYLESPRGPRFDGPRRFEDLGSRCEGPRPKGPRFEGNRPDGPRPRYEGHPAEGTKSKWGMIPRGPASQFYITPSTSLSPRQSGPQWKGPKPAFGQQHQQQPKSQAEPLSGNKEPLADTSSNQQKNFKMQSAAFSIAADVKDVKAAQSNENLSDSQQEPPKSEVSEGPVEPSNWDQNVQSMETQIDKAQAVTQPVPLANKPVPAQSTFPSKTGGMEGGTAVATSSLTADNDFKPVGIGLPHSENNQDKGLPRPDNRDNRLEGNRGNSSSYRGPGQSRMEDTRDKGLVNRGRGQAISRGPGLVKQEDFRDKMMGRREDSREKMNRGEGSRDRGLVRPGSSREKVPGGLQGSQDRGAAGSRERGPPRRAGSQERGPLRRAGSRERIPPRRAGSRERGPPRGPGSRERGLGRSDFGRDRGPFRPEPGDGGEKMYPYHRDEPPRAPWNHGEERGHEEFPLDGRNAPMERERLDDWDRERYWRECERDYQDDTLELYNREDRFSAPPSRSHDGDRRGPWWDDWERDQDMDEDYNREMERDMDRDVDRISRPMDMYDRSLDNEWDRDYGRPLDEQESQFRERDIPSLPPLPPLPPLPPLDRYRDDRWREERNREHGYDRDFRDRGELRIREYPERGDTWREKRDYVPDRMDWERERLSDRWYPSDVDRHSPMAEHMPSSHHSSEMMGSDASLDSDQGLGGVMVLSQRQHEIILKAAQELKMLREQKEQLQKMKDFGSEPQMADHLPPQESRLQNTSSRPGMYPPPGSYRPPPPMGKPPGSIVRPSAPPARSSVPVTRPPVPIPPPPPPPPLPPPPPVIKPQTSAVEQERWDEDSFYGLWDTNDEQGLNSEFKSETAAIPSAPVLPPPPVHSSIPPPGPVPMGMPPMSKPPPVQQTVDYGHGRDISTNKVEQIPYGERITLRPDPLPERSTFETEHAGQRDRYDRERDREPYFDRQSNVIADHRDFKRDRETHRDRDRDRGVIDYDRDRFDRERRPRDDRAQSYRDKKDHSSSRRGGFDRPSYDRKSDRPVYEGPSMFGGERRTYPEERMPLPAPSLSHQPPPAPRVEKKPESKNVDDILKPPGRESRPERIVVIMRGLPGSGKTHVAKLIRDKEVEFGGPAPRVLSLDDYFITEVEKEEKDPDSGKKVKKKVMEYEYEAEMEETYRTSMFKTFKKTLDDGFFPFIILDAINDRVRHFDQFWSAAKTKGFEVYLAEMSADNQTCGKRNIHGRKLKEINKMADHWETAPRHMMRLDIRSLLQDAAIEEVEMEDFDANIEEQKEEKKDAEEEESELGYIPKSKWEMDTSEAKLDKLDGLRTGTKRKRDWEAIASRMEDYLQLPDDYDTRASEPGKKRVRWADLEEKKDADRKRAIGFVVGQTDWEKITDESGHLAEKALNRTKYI
UniProt P52888, whole entry: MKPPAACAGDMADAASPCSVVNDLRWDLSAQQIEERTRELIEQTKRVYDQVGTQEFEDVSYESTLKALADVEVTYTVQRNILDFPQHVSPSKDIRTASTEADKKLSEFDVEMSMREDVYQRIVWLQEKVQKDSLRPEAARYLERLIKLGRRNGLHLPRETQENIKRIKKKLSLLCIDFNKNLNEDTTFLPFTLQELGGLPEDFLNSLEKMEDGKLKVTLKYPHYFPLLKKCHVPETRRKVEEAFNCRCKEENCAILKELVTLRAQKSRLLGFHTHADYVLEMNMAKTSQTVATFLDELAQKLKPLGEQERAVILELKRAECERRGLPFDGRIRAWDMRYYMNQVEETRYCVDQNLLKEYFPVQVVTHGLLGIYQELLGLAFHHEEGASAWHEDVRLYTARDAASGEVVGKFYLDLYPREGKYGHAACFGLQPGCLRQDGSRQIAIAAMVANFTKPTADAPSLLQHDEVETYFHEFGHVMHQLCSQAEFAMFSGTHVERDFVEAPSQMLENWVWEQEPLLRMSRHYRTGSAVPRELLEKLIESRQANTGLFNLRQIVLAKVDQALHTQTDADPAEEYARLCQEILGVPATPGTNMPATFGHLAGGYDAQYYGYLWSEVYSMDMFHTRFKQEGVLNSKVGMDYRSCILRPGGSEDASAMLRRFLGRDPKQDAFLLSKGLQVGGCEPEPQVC
UniProt P53779: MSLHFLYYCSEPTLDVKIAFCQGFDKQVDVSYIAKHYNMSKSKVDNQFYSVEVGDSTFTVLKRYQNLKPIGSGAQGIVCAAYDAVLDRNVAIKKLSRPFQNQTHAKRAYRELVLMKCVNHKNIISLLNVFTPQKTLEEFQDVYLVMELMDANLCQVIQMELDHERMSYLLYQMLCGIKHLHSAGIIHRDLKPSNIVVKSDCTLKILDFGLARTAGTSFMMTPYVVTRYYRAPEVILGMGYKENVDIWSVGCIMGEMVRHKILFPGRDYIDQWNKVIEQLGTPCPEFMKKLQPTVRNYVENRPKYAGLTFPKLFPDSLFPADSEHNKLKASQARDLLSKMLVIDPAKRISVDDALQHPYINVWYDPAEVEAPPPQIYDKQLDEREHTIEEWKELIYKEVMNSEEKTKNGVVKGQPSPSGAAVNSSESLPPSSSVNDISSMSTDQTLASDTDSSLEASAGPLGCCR
UniProt P53611: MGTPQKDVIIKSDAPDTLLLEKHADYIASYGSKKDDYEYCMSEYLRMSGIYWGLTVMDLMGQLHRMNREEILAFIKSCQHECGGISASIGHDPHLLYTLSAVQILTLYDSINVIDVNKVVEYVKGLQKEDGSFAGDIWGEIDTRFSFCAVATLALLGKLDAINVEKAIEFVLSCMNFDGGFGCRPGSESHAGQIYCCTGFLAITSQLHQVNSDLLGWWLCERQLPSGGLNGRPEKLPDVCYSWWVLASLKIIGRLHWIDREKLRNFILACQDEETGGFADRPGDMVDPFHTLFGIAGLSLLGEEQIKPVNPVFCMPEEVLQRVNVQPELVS
UniProt P52789: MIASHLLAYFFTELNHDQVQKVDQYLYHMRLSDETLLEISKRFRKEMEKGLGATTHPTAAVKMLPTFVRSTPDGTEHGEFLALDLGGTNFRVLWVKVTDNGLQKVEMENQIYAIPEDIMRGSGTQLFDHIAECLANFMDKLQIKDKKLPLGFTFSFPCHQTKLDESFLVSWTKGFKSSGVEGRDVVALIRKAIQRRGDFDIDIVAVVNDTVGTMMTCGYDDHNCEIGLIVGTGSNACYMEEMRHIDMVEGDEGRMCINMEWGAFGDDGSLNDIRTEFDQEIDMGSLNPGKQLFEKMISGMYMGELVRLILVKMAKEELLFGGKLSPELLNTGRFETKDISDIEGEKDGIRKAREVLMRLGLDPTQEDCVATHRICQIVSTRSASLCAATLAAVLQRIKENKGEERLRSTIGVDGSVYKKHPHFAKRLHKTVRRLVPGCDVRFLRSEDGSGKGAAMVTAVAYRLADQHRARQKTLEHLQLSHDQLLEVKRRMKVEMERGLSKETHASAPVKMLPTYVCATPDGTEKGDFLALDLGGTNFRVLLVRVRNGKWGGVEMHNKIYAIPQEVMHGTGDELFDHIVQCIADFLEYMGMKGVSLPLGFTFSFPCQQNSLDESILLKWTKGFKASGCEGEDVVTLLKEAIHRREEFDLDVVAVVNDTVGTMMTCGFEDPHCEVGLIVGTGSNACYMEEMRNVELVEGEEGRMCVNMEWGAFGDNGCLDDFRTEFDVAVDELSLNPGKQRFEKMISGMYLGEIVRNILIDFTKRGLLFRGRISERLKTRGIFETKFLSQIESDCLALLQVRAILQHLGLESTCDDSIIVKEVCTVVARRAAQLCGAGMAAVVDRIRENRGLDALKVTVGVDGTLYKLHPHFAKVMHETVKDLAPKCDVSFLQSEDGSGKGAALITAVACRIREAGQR
UniProt P50219: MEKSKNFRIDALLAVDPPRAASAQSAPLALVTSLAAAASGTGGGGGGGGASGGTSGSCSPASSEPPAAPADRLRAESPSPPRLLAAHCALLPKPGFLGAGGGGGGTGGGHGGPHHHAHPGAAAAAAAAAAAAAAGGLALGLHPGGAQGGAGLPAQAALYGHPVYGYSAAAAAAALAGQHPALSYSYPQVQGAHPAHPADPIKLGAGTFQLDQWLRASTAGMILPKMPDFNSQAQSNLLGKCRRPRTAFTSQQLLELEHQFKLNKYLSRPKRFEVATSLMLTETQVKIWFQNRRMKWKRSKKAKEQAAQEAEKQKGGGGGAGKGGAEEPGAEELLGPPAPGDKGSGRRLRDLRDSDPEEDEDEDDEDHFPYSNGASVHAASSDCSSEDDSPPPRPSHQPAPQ

Compound in this test: Cc1nc(Nc2ncc(C(=O)Nc3c(C)cccc3Cl)s2)cc(N2CCN(CCO)CC2)n1 [dasatinib]
In words: log2 fold change of tryptic peptide abundance, ligand vs vehicle (limited proteolysis) (log2 ratio); higher = more trypsin-susceptible (destabilized). The settings on record: ligand concentration: 5 uM; sample: K562 cleared lysate.
As to “SUCLG1 (peptide sequence: QHLYVDKNTK, peptide start residue: 48) (UniProt P53597)”, the log2 fold change was -0.272.
Regarding “GTF2A2 (peptide sequence: AINAALAQR, peptide start residue: 43) (UniProt P52657)”, the log2 fold change was -0.211.
On to “GTF2A1 (peptide sequence: SVIEDVINDVR, peptide start residue: 16) (UniProt P52655)”, for which the log2 fold change was -0.281.
For “YLPM1 (peptide sequence: DYVPDRMDWER, peptide start residue: 1388) (UniProt P49750)”, the log2 fold change was -0.219.
Take “THOP1 (peptide sequence: QDAFLLSK, peptide start residue: 668) (UniProt P52888)”: the log2 fold change stood at 0.225.
Take “RAB28 (peptide sequence: VAAEILGIK, peptide start residue: 173) (UniProt P51157)”: the log2 fold change is -0.106.
Consider “UniProt P53779 (peptide sequence: EHTIEEWK, peptide start residue: 346)”, for which the log2 fold change amounted to 0.0995.
On to “RABGGTB (peptide sequence: HADYIASYGSK, peptide start residue: 23) (UniProt P53611)”, for which the log2 fold change came to 0.423.
The figure for “HK2 (peptide sequence: GLSKETHASAPVK, peptide start residue: 498) (UniProt P52789)” is -0.924.
Regarding “MNX1 (peptide sequence: TAFTSQQLLELEHQFK, peptide start residue: 246) (UniProt P50219)”, the log2 fold change is -0.405.
With “FNTA (peptide sequence: DVYDYFR, peptide start residue: 98) (UniProt P49354)”, the log2 fold change came out at 0.116.
